No constants are given. Whether binding was seen depends on the method and setting. In cells and extracts the contact can be indirect. Some results given as binding are weak or reduced against the parent protein; the word gives no strength.
Legend:
[1] = biological target: Myc-tagged FBXL14 (FBXL14-Myc), in vitro translated (UniProt Q8N1E6); experiment: co-IP; both proteins in vitro translated in reticulocyte lysate, equal amounts mixed and incubated 30 min at 30 C; precipitated with Myc-tag antibody 4A6 overnight, blotted for RPA194 and FBXL14-Myc
[2] = biological target: Myc-tagged FBXL14 (FBXL14-Myc), stably expressed in A375 cells (UniProt Q8N1E6); experiment: co-IP; A375 cells stably expressing RPA194-HA and FBXL14-Myc, treated with or without BMH-21 (1 uM) and MG132 (10 uM) for 4 h; RIPA lysate diluted in 0.5% NP-40 buffer (50 mM Tris-HCl pH 7.5, 150 mM NaCl); precipitated with Myc-tag antibody 4A6 overnight at 4 C, blotted for RPA194 and FBXL14-Myc

Chains of the proteins cited; added tags and fusions are not shown.
UniProt Q8N1E6: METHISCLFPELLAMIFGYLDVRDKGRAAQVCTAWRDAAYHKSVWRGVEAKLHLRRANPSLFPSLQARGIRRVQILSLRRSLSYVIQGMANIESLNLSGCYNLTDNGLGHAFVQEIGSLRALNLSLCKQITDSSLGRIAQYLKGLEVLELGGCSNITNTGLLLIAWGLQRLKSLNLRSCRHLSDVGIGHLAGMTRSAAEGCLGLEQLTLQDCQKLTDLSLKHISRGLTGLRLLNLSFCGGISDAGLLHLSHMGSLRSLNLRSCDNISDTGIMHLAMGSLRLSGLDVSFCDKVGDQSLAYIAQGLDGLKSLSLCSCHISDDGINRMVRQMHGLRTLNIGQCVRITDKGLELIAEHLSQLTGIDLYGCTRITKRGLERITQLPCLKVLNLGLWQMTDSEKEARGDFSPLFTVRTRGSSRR
UniProt O95602: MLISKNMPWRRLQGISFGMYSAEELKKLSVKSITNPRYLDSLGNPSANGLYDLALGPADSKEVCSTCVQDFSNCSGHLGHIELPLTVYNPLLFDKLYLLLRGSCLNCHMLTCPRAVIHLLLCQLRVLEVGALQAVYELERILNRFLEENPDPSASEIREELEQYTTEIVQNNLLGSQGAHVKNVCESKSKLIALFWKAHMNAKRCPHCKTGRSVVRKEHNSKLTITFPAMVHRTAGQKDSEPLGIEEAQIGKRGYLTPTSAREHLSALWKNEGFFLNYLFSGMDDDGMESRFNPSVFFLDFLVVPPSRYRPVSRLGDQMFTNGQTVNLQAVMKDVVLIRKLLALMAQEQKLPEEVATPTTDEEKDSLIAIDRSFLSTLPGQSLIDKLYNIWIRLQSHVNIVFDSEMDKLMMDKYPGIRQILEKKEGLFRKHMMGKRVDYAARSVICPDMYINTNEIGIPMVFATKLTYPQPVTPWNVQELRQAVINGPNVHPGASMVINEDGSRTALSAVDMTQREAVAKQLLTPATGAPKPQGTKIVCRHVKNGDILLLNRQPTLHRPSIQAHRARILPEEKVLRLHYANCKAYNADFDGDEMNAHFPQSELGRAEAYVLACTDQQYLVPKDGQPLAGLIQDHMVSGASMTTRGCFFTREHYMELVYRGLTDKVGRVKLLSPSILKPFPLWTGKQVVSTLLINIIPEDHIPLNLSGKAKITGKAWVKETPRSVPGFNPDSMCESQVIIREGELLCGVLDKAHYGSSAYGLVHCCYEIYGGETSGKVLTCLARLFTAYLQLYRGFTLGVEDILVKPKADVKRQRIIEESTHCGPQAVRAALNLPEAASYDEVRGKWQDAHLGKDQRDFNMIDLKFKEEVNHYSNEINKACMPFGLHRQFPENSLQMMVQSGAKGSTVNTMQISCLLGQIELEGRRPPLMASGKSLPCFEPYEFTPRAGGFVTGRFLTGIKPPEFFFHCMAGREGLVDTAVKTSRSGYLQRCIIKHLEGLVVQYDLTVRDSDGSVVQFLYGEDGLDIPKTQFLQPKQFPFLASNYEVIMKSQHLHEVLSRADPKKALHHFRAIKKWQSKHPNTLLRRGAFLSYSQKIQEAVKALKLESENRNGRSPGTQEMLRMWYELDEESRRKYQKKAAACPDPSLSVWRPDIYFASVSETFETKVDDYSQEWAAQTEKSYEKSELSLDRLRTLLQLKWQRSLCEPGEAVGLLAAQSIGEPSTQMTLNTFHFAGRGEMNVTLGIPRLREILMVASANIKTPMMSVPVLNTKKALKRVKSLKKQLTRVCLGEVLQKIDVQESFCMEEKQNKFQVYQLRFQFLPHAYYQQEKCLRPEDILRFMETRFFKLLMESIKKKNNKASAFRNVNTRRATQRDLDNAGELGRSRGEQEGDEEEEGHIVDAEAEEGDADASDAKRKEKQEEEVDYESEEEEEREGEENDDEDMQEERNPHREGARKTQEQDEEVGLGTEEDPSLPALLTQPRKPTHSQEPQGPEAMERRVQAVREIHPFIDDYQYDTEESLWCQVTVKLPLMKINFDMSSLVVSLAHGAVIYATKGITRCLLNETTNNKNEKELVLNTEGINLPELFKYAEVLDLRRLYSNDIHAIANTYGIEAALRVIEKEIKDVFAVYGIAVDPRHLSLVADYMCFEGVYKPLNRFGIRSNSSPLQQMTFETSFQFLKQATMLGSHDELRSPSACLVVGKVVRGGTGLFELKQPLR

binding [1]	Substance	binding [2]
binds	HA-tagged RPA194, in vitro translated (from pCMV6-AC-RPA194-HA-His) (from UniProt O95602 1-1720)	
	hemagglutinin (HA)-tagged RPA194 (RPA194-HA), stably expressed in A375 cells (from UniProt O95602 1-1720)	binds

Source: PMC9727647
